Source: PMC10066286
No constants are given. Whether binding was seen depends on the method and setting. In cells and extracts the contact can be indirect. Some entries that bind do so weakly or less than the wild type.

How the values were obtained:
[1] = molecular target: T1, SRP72 (signal recognition particle 72), wild-type (human) (UniProt O76094); test: co-IP; lysates of transfected 293T cells, 48 h after transfection; Pierce MS-Compatible Magnetic IP Kit; incubated with anti-c-Myc antibody (9E10) at 4 °C overnight; immunoblotting with anti-Myc (9B11), anti-HA (C29F4) and anti-GAPDH
T1 sequence: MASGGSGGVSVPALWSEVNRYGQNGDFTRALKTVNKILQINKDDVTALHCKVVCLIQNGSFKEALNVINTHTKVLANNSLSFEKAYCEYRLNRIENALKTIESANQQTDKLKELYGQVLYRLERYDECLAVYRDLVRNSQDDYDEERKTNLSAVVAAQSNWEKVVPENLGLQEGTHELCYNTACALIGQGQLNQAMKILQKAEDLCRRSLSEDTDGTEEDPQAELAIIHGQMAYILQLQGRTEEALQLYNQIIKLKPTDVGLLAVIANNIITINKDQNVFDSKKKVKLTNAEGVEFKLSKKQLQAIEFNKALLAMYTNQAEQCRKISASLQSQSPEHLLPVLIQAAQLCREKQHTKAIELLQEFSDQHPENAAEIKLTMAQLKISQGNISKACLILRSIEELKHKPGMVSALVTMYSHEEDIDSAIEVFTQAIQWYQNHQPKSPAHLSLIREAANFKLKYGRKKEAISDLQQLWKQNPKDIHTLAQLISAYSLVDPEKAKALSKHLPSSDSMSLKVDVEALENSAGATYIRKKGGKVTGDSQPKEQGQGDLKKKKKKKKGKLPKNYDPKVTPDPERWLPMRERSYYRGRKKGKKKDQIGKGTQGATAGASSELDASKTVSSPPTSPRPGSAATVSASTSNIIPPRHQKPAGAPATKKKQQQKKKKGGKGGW

[2] = molecular target: T2, SRP72 p.R124S mutant (human) (UniProt O76094); test: as above
T2 sequence: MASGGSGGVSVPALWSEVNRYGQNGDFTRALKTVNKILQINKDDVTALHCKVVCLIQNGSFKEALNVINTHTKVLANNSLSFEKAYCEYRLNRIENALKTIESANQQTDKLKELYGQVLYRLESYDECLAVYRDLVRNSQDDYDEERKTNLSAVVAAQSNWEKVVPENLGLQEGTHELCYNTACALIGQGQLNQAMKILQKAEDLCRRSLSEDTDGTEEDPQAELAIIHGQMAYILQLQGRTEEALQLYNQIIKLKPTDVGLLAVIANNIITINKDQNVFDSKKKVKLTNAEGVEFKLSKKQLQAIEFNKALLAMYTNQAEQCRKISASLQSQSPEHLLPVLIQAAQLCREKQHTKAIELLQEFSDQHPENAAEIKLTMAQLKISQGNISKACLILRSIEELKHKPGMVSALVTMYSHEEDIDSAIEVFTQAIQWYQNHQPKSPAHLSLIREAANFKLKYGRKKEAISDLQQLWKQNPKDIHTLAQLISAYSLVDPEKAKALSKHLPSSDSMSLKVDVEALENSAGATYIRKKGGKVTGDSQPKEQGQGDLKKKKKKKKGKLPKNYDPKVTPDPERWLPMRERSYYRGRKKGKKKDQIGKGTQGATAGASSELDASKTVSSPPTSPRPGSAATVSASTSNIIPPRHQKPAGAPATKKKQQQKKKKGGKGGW

binding [1]: binds | binding [2]: binds
B1: SRP68 (protein, UniProt Q9UHB9 1-627)
chain: MAAEKQVPGGGGGGGSGGGGGSGGGGSGGGRGAGGEENKENERPSAGSKANKEFGDSLSLEILQIIKESQQQHGLRHGDFQRYRGYCSRRQRRLRKTLNFKMGNRHKFTGKKVTEELLTDNRYLLLVLMDAERAWSYAMQLKQEANTEPRKRFHLLSRLRKAVKHAEELERLCESNRVDAKTKLEAQAYTAYLSGMLRFEHQEWKAAIEAFNKCKTIYEKLASAFTEEQAVLYNQRVEEISPNIRYCAYNIGDQSAINELMQMRLRSGGTEGLLAEKLEALITQTRAKQAATMSEVEWRGRTVPVKIDKVRIFLLGLADNEAAIVQAESEETKERLFESMLSECRDAIQVVREELKPDQKQRDYILEGEPGKVSNLQYLHSYLTYIKLSTAIKRNENMAKGLQRALLQQQPEDDSKRSPRPQDLIRLYDIILQNLVELLQLPGLEEDKAFQKEIGLKTLVFKAYRCFFIAQSYVLVKKWSEALVLYDRVLKYANEVNSDAGAFKNSLKDLPDVQELITQVRSEKCSLQAAAILDANDAHQTETSSSQVKDNKPLVERFETFCLDPSLVTKQANLVHFPPGFQPIPCKPLFFDLALNHVAFPPLEDKLEQKTKSGLTGYIKGIFGFRS
